In patent publication US20050112168A1:
No constants are given. Whether binding was seen depends on the method and setting. Some entries that bind do so weakly or less than the wild type.

The chains behind the UniProt entries cited, without tags or fusion partners. Residues count along the entry.
UniProt P09889, residues 22-340: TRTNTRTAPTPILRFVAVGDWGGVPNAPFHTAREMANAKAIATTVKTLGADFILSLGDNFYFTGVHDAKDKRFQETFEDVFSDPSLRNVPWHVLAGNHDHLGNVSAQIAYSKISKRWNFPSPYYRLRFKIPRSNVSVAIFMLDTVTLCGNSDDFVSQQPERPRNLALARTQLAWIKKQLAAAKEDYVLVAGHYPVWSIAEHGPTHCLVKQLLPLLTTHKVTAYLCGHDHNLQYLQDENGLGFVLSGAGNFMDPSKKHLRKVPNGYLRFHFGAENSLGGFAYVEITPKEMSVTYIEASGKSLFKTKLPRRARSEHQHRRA
UniProt P29288, residues 23-327: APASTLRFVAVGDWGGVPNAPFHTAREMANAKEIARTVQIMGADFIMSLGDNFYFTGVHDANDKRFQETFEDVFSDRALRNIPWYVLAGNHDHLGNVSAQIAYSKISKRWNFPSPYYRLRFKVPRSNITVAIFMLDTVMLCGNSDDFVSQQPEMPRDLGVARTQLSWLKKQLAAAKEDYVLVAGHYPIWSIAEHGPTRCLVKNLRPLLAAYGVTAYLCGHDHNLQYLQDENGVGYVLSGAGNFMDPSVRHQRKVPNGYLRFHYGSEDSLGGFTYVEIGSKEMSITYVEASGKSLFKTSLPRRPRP

Tests used:
[1] = target: purified type V tartrate resistant acid phosphatase (TRAP), also known as uteroferrin (UniProt P09889); experiment: Scatchard-type analysis on immobilised TRAP (FIG. 6)
[2] = target: purified type V tartrate resistant acid phosphatase (TRAP), also known as uteroferrin (UniProt P09889); experiment: Far-Western, TRAP on membrane probed with intact phage
[3] = target: purified type V tartrate resistant acid phosphatase (TRAP), also known as uteroferrin (UniProt P09889); experiment: Far-Western detection of TRAP with M13 Clone 5 phage (named in paragraph 417)
[4] = target: TRAP in osteoclast resorption lacunae on cortical bone wafers (rat (osteoclasts from rat pups)) (UniProt P29288); experiment: Far-Western of proteins extracted from pitted bone wafers by boiling
[5] = target: purified type V tartrate resistant acid phosphatase (TRAP), also known as uteroferrin (UniProt P09889); experiment: Far-Western, increasing amounts of TRAP probed with Clone 5 phage
[6] = target: TRAP in osteoclast resorption lacunae on cortical bone wafers (rat (osteoclasts from rat pups)) (UniProt P29288); experiment: in situ staining of pitted bone wafers with phage and HRP anti-phage antibody

Measured: binding

TPLSYLKGLVTV (peptide, not shown: large carriers) [Clone 5 phage (M13 phage displaying the 12-mer …)]
binds: all assays above
